# Counter-ions that a name gives are not always drawn. The list shows a part of the results. Single values are uncertain here, since repeats match poorly.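 The human kidney-derived cells carry a stably integrated construct of eight TEAD-binding elements driving luciferase, read by luminescence in a drug-repurposing library screen. A compound counts as a hit when its signal is more than five robust Z scores above the plate mean.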
# System: HEK293A TEAD-LUC reporter
# Assay: TEAD-luciferase reporter activity (YAP activation), robust Z score vs plate; higher = stronger YAP/TEAD activation
# Conditions: 24 h
SMILES,TEAD-luciferase reporter activity (compound concentration: 2 uM),TEAD-luciferase reporter activity (compound concentration: 200 nM),TEAD-luciferase reporter activity (compound concentration: 10 uM)
CO/N=C(\C(=O)N[C@@H]1C(=O)N2C(C(=O)[O-])=C(C[N+]3(C)CCCC3)CS[C@H]12)c1csc(N)n1 [cefepime],inactive: -0.977,–,–
CO/N=C(\C(=O)N[C@@H]1C(=O)N2C(C(=O)[O-])=C(C[N+]3(C)CCCC3)CS[C@H]12)c1csc(N)n1 [Cefepime hydrochloride],–,inactive: 0.242,inactive: -1.39
Cc1ncc[nH]1 [2-methylimidazole],inactive: -0.0553,inactive: -0.607,inactive: -1.12
CCOC(=O)C1=C(C)NC(C)=C(C(=O)OCCN2CCCCC2)C1c1cccc([N+](=O)[O-])c1 (stereo not drawn),inactive: -0.504,inactive: -2.67,inactive: 2.11
COC(=O)[C@H](Cc1cccc(C(=N)N)c1)[C@@H](C)NC(=O)c1ccc(-c2cccc(CN)c2)cc1,inactive: 0.0404,inactive: -1.1,inactive: 0.664
CCCCOP(=O)(CC(CCOc1ccccc1)CP(=O)(OCCCC)OCCCC)OCCCC,inactive: 0.838,inactive: -1.29,inactive: 1.96
Cc1cccc2c1C=Cc1ccccc1C2=CCC[N+](C)(C)[O-],inactive: 0.844,inactive: 2.03,active: 8.38
NC(=O)c1nc[nH]c1N,inactive: -0.643,inactive: 0.126,inactive: 0.871
CCn1c(=Cc2ccccn2)sc(=C2Sc3ccccc3N2C)c1=O,inactive: 0.53,inactive: -1.13,inactive: -0.364
O=S(=O)(Nc1cc(Cl)c(Oc2cnc3ccccc3c2)c(Cl)c1)c1ccc(Cl)cc1Cl,inactive: -1.71,inactive: -2.99,inactive: 0.351
O=C(O)c1ccc(Cl)cc1Cl [Analben],inactive: -0.419,inactive: 1.63,inactive: -0.0368
CCN1CCN(Cc2ccc(Nc3ncc(F)c(-c4cc(F)c5nc(C)n(C(C)C)c5c4)n3)nc2)CC1 [abemaciclib],inactive: -2.43,inactive: -1.53,inactive: -1.24
CCC(CC)CC1(C(=O)Nc2ccccc2SC(=O)C(C)C)CCCCC1 [dalcetrapib],inactive: -0.046,inactive: -0.696,inactive: 0.533
CC1(C)S[C@@H]2[C@H](NC(=O)/C(=N\OC3CCCC3)c3csc(N)n3)C(=O)N2[C@H]1C(=O)O,inactive: -0.664,inactive: 0.623,inactive: -0.0337
CC(C)CC(N)C(=O)NC(Cc1ccccc1)C(=O)NCC(=O)NCC(=O)NC(Cc1ccc(O)cc1)C(=O)O (stereo not drawn),inactive: -1.33,inactive: -1.05,inactive: -0.382
CC(C)CCC[C@@H](C)[C@H]1CC[C@H]2[C@@H]3CC=C4C[C@@H](OS(=O)(=O)O)CC[C@]4(C)[C@H]3CC[C@]12C,inactive: 0.0939,inactive: 1.06,inactive: -1.3
C[C@]12CC[C@@H]3c4ccc(OS(=O)(=O)O)cc4CC[C@H]3[C@@H]1CCC2=O [Estrone 3-sulfate],inactive: 3.02,active: 8.21,inactive: 0.334
COc1ccc2c(c1)c(-c1ccccc1)nc(=O)n2CC(F)(F)F,inactive: -1.23,inactive: 0.443,inactive: -1.44

# Looked up one by one from above:
SMILES,TEAD-luciferase reporter activity (compound concentration: 2 uM),TEAD-luciferase reporter activity (compound concentration: 200 nM),TEAD-luciferase reporter activity (compound concentration: 10 uM)
O=S(=O)(Nc1cc(Cl)c(Oc2cnc3ccccc3c2)c(Cl)c1)c1ccc(Cl)cc1Cl,inactive: -1.71,inactive: -2.99,inactive: 0.351
CCC(CC)CC1(C(=O)Nc2ccccc2SC(=O)C(C)C)CCCCC1 [dalcetrapib],inactive: -0.046,inactive: -0.696,inactive: 0.533

# (list continues)

SMILES,TEAD-luciferase reporter activity (compound concentration: 2 uM),TEAD-luciferase reporter activity (compound concentration: 200 nM),TEAD-luciferase reporter activity (compound concentration: 10 uM)
COc1ccc(C2N(c3ccc(OC)cc3)C(=O)C23CCCCC3)cc1 (stereo not drawn),inactive: 1.04,inactive: -0.882,inactive: 0.322
CN1CCC2(CC1)CCN(C(=O)CCC(=O)c1ccc(F)cc1)C2,inactive: 0.771,inactive: -2.19,inactive: 1.09
O=C(CN1CCC(CN2Cc3ccccc3C2=O)CC1)c1ccc(F)cc1,inactive: -0.577,inactive: -0.399,inactive: -0.599
CCOC(=O)COc1ccc2c(C)c(CCN(CC)CC)c(=O)oc2c1,inactive: -0.545,inactive: -1.8,inactive: 0.758
COc1cc(C(C)C)ccc(CN2CCN(C(c3ccc(F)cc3)c3ccc(F)cc3)CC2)c1=O,inactive: -0.996,inactive: 0.386,inactive: 0.0579
C[N+](C)(C)CC(=O)O [betaine],inactive: -0.281,–,–
C[N+](C)(C)CC(=O)O,–,inactive: 0.105,inactive: -0.894
C=CCOC(=O)N[C@@H](CC(=O)O)C(=O)COc1cc2ccccc2cc1-c1ncc[nH]1,inactive: 0.773,inactive: -0.0228,inactive: -1.12
CC12C[C@H](O)[C@@]3(F)C(CCC4=CC(=O)C=CC43C)[C@@H]1C[C@H]1O[C@@](C)(c3ccccc3)O[C@]12C(=O)CO (stereo partly drawn),inactive: 1.4,inactive: -0.456,inactive: -1.53
N#Cc1ccc(C(F)(c2ccc(C#N)cc2)n2cncn2)cc1,inactive: 0.956,inactive: -1.17,active: 6.21
Cc1c(NC(=O)c2cc3c(s2)CCCC3)cccc1-c1cn(C)c(=O)c(Nc2ccc(C3C(=O)N(C)CCN3C)cc2)n1 (stereo not drawn),inactive: -0.102,inactive: -1,active: 6.5
NCC(=O)N1CCC[C@H]1C(=O)NCC(N)=O,inactive: -1.34,inactive: 1.45,inactive: 0.353
O=C(/C=C/c1ccc(O)cc1)C1C(=O)C([C@@H]2O[C@H](CO)[C@@H](O)[C@H](O)[C@H]2O)C(=O)C(O)([C@@H]2O[C@H](CO)[C@@H](O)[C@H](O)[C@H]2O)C1=O (stereo partly drawn) [Hydroxysafflor yellow A],inactive: -0.7,inactive: 2.03,inactive: 2.13
O=C(NCC1CC1)C1CCN(c2nc3ncccc3o2)CC1,–,inactive: -0.981,inactive: 0.565
N#C/N=C(\NCCCCCCOc1ccc(Cl)cc1)Nc1ccncc1,active: 10.2,inactive: -0.792,active: 5.37
Fc1cc(F)c2c(c1)CC(n1c(CCNCc3ccccc3)c[nH]c1=S)CO2 (stereo not drawn) [Zamicastat],inactive: 0.123,inactive: -0.821,inactive: 0.576
CC(C)=CCC[C@@](C)(O)[C@H]1CC[C@]2(C)[C@@H]1[C@H](O)C[C@@H]1[C@@]3(C)CC[C@H](O)C(C)(C)[C@@H]3[C@@H](O)C[C@]12C [Protopanaxatriol],inactive: -1.89,inactive: 1.11,inactive: 1.11

# Reference: the supplement of paper PMC10735217
